Library screen at single concentrations

The values are deposited in ChEMBL (CHEMBL3988442, “University of Dundee, Small-Polar-MMV Screening Library” (2021)).

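Phenotypic screen: M. tuberculosis growth, glucose 7H9 medium, 3 days; the read-out is not stated. Compounds at 50 µM. Higher reads as more growth inhibition (inferred: compounds with an IC50 in retests scored well above the rest). Size under these conditions: about 69,000 compounds, about 760 of them at 50% or above in at least one test.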

Results are given as percent effect. The record does not define 0% and 100%; most values in the screen are far below 50% and negative numbers occur (in some assays of this library far below -100). The compounds are a random part of those screened. Two or more numbers in one place are separate tests of the same structure; such repeats can differ widely.

O=C(CCC(F)(F)F)NCC1CCCS1 (stereo not shown) gave 34.49% and 12.56%.
Cc1nc(C)c(CN(C)C2CCN(C(=O)OC(C)(C)C)CC2)s1 gave 19.96%.
O=C(Cn1ccc2sccc2c1=O)NC1CCCCC1 gave -4.145%.
CCn1cc(N2Cc3nc(N4CCN(C)CC4)ncc3C2=O)cn1 gave -3.272%.
CC1(C)CN(Cc2cc(C3CCCCC3)no2)CC[C@]1(C)O gave -10.94% and 1.43%.
CCc1nnc(CN(CC)C(=O)C2CC(=O)N(CC)C2)o1 (stereo not shown) gave -9.821%.
CN(C)CC(=O)N1CCCC1c1ccccn1 (stereo not shown) gave 1.558%.
CCn1nc(C)c2c1cnn2CCNS(=O)(=O)Cc1ccccc1 gave 57.91%.
Cc1ncccc1OC1(C(=O)NCCC2CCCN2C)CCNCC1 (stereo not shown) gave -29.68% and 3.973%.
COc1ccc(-c2ccc(C(=O)NS(C)(=O)=O)c(F)c2)c(F)c1 gave -8.572%.
CCCN1CCC(Cc2nn3c(C(C)C)nnc3s2)CC1 gave -33.72%.
OCCNc1cc(-c2ccncc2)ncn1 gave -0.9774%.
CCCc1nnc(NC(=O)NC(C)Cn2cccn2)s1 (stereo not shown) gave 5.977%.
CNc1cc(C(=O)NCCC2=CSC3=NCCCN23)ccn1 gave 13.68% and -5.663%.
CC(C)(C)OC(=O)NC(C)(C(N)=O)c1cccc(Cl)c1 (stereo not shown) gave -9.783%.
Cn1cc(C(=O)Nc2cccc(CCN3CCCC3)c2)ccc1=O gave -5.663% and -8.527%.
CCc1nnsc1C(=O)N1CCCC(n2nc(C)nc2C)C1 (stereo not shown) gave -10.17%.
CCc1nonc1NC(=O)C(C)Oc1ccccc1F (stereo not shown) gave 31.03%.
CC(C)Oc1ccc(CNC(=O)CN(C)S(C)(=O)=O)cc1F gave 2.487%.
CN1CCC(c2nnc(CN3CCOCC3)n2C)CC1 gave -13.37%.
CC(=O)c1cccc(S(=O)(=O)NCC(C)(O)c2cccs2)c1 (stereo not shown) gave 31.18%.
CN(C)c1ncccc1CNCc1ccc(N2CCOCC2)cc1 gave -19.07%.
N#CC1COCCN1C(=O)c1ccc2cc[nH]c2c1 (stereo not shown) gave 4.408%.
Cc1c(NC(=O)C(C)N(C)C)c(=O)n(-c2ccccc2)n1C (stereo not shown) gave -14.46%.
Cc1nc2cc(-c3nccn3C)nn2c(N2CCCC2)c1C gave 7.699%.
Cc1ccccc1C(C(=O)N(C)Cc1cnn(C)c1)N(C)C (stereo not shown) gave -10.27%.
[H][C@]12CC[C@]([H])(CN(Cc3cscn3)C1)N(C(=O)c1nc(C)c[nH]1)C2 gave -19.67%.
Cc1nc(C)n(C2CCCN(C(=O)c3c[nH]c(C(C)C)n3)C2)n1 (stereo not shown) gave 16.54%.
CCOCCC1(CNC(=O)c2ccncc2)CCC1 gave 12.87%.
CCOC(C)c1nc(Cn2cc(-n3cccc3)cn2)cs1 (stereo not shown) gave 32.15% and 28.12%.
Cc1cc(C)c(CNC(=O)N2CCC(N3CCCCC3)CC2)c(=O)[nH]1 gave -2.467%.
Cc1nc(=O)c2ccccc2n1C1=CCN(CC(=O)NC(C)C)CC1 gave 58.9%.
COc1cccc(OCCCc2cncc(C(N)=O)c2)c1 gave 3.516% and 4.753%.
CCc1nnc(CS(=O)(=O)c2ccc(C)c(C)c2)n1C gave -19.33%.
c1cc(CN2CCOCC3(CCNCC3)C2)ccn1 gave -47.63%.
Cn1cc(-c2nc(CNCCn3cccn3)cs2)cn1 gave -42.03%.
O=C(CCCn1cncn1)N1CCCCC1c1nccs1 (stereo not shown) gave 5.296%.
CCn1cc(CNC(=O)C2CCCC2)cn1 gave 18.06%.
CN(Cc1ccco1)c1ccc(-c2nccn2C)nn1 gave -8.627%.
Cc1cc(NCCC(=O)NC2CCCCC2)nc(-c2ccncc2)n1 gave 8.08%.
OCCn1nccc1C1CCN(Cc2nc(C3CC3)no2)CC1 gave -7.8%.
O=C(N1CCCC1)N1CCN(CC2CC2)c2ncccc2C1 gave 21.55%.
COc1cc(C(=O)N2CCCC(n3cncn3)C2)ccc1C (stereo not shown) gave 9.712%.
Fc1ccc(-c2noc(CN3CCC(c4cc[nH]n4)CC3)n2)cc1 gave 6.592%.
Cc1cccc(CNC(C)c2ccc(OCC(=O)NC3CC3)cc2)c1 (stereo not shown) gave 8.683%.
Cc1cnn(CC2CCCCN2Cc2nccn2CC(F)(F)F)c1 (stereo not shown) gave 3.816%.
CS(=O)(=O)N1CCOC2(CCN(c3nccs3)CC2)c2ccccc21 gave -40.24% and -2.516%.
Cc1cc(C2CCCN(S(=O)(=O)N(C)C)C2)ccn1 (stereo not shown) gave -18.36%.
Cn1cccc1C(=O)N1CCN(Cc2ccncc2)c2ncccc2C1.O=C(O)C(F)(F)F.O=C(O)C(F)(F)F gave -12.03%.
[H][C@@]12COC[C@]1(COCc1ccncc1)CN(C(=O)C1=CCCC1)C2 gave 25.22%.
O=C1CO[C@H](c2ccc(NS(=O)(=O)Cc3ccccc3)cc2)[C@@H](CO)N1 gave -8.25% and 7.816%.

The last 4 entries again:

{"structure": "Cc1cc(C2CCCN(S(=O)(=O)N(C)C)C2)ccn1", "stereo": "stereo not shown", "percent effect": -18.36}
{"structure": "Cn1cccc1C(=O)N1CCN(Cc2ccncc2)c2ncccc2C1.O=C(O)C(F)(F)F.O=C(O)C(F)(F)F", "percent effect": -12.03}
{"structure": "[H][C@@]12COC[C@]1(COCc1ccncc1)CN(C(=O)C1=CCCC1)C2", "percent effect": 25.22}
{"structure": "O=C1CO[C@H](c2ccc(NS(=O)(=O)Cc3ccccc3)cc2)[C@@H](CO)N1", "percent effect": "-8.25 and 7.816"}